Reference: PubChem BioAssay AID602196 (INSERM, 2012)
Purpose: 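Genes whose knock-down alters cisplatin killing of lung cancer cells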. Cells: human A549 lung cancer cells. Reagent: siRNA pair against human genes. Duration: 48 h transfection before cisplatin; time from cisplatin to read-out not stated. Treatment: cisplatin at a dose killing half of control-siRNA cells; exact dose and duration not given. Measurement: 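Shift in cisplatin death relative to control siRNA, from -50 (all cells die) to +50 (no cells die); siRNAs harmful on their own scored 0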. Scale: two-siRNA summed score (-2 to +2): higher = both siRNAs protect from cisplatin killing; -2 means both sensitise; mean protection from cisplatin (shift in death): higher = protection from cisplatin killing. Call rule: 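Each siRNA scores 0 if harmful alone by LDH or WST-1, otherwise +1 if it reduces and -1 if it increases cisplatin killing; a gene is active when both siRNAs agree (sum +2 or -2)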. Meaning of the calls: active = both siRNAs shift cisplatin killing the same way; inactive = no consistent shift, or siRNA harmful alone.
The deposit covers about 23,000 reagents; shown is a part drawn at random. Over the whole deposit, 455 (2%) are marked active. 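Active includes both protection and sensitisation; some change values fall well beyond the stated -50 to +50 range.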 Entries without a mark were called inactive. Not all columns of the deposit are shown. Not given: the amount of reagent.

Against TIPARP, the entry reads two-siRNA summed score (-2 to +2) = 0; mean protection from cisplatin (shift in death) (%) = 4.8.
Silencing of ACTN4 came out at: two-siRNA summed score (-2 to +2) = 0; mean protection from cisplatin (shift in death) (%) = 3.5.
Against TTYH3 the deposit lists two-siRNA summed score (-2 to +2) = 0; mean protection from cisplatin (shift in death) (%) = 9.5.
Knock-down of SPHK2 resulted in: two-siRNA summed score (-2 to +2) = 1; mean protection from cisplatin (shift in death) (%) = 21.7.
For LOC441740 the deposit lists two-siRNA summed score (-2 to +2) = 2 (active); mean protection from cisplatin (shift in death) (%) = 21.1.
ATP6V0C gave two-siRNA summed score (-2 to +2) = 0; mean protection from cisplatin (shift in death) (%) = 3.3.
With knock-down of ACCS, the record shows two-siRNA summed score (-2 to +2) = 0; mean protection from cisplatin (shift in death) (%) = -4.6.
Knock-down of GRPEL1 resulted in: two-siRNA summed score (-2 to +2) = 1; mean protection from cisplatin (shift in death) (%) = 7.5.
Knock-down of CXCL2 resulted in: two-siRNA summed score (-2 to +2) = 0; mean protection from cisplatin (shift in death) (%) = 6.1.
Silencing of LOC401391 gave: two-siRNA summed score (-2 to +2) = 0; mean protection from cisplatin (shift in death) (%) = 13.
For RASSF8, the values are two-siRNA summed score (-2 to +2) = 0; mean protection from cisplatin (shift in death) (%) = -0.7.
For JPT1, the values are two-siRNA summed score (-2 to +2) = -1; mean protection from cisplatin (shift in death) (%) = 0.7.
Against SAMD10, the entry reads two-siRNA summed score (-2 to +2) = 0; mean protection from cisplatin (shift in death) (%) = 11.1.
EYA3 showed two-siRNA summed score (-2 to +2) = 0; mean protection from cisplatin (shift in death) (%) = 11.6.
After knock-down of LOC442648 the results were two-siRNA summed score (-2 to +2) = 1; mean protection from cisplatin (shift in death) (%) = 5.7.
G6PD showed two-siRNA summed score (-2 to +2) = 0; mean protection from cisplatin (shift in death) (%) = -3.

Reagents listed above marked active (1):
LOC441740: two-siRNA summed score (-2 to +2) = 2 (active); mean protection from cisplatin (shift in death) (%) = 21.1

Next reagents:
Against IPMK the deposit lists two-siRNA summed score (-2 to +2) = 0; mean protection from cisplatin (shift in death) (%) = 5.6.
Silencing of CCDC180 came out at: two-siRNA summed score (-2 to +2) = 0; mean protection from cisplatin (shift in death) (%) = -4.4.
Silencing of SYCN resulted in: two-siRNA summed score (-2 to +2) = 0; mean protection from cisplatin (shift in death) (%) = -8.7.
SHMT2 showed two-siRNA summed score (-2 to +2) = -1; mean protection from cisplatin (shift in death) (%) = -16.
With knock-down of SKAP2 the results were two-siRNA summed score (-2 to +2) = 0; mean protection from cisplatin (shift in death) (%) = -9.8.
With knock-down of KCNE2 the results were two-siRNA summed score (-2 to +2) = 1; mean protection from cisplatin (shift in death) (%) = 10.
PLA2G4F gave two-siRNA summed score (-2 to +2) = 1; mean protection from cisplatin (shift in death) (%) = 2.6.
Depletion of LOC389654 came out at: two-siRNA summed score (-2 to +2) = 0; mean protection from cisplatin (shift in death) (%) = -0.2.
Knock-down of KBTBD3 resulted in: two-siRNA summed score (-2 to +2) = 1; mean protection from cisplatin (shift in death) (%) = 22.3.
SRRM2 scored two-siRNA summed score (-2 to +2) = 0; mean protection from cisplatin (shift in death) (%) = 6.5.
With knock-down of TYSND1, the screen gave two-siRNA summed score (-2 to +2) = 0; mean protection from cisplatin (shift in death) (%) = 3.7.
After knock-down of DNAJC11 the results were two-siRNA summed score (-2 to +2) = 0; mean protection from cisplatin (shift in death) (%) = -1.4.
LOC388416 showed two-siRNA summed score (-2 to +2) = 0; mean protection from cisplatin (shift in death) (%) = 20.4.
After knock-down of LOC390239 the results were two-siRNA summed score (-2 to +2) = 1; mean protection from cisplatin (shift in death) (%) = 8.3.
After knock-down of XPO5, the screen gave two-siRNA summed score (-2 to +2) = 0; mean protection from cisplatin (shift in death) (%) = 8.4.
